Results are given in words; binding and its absence hold for the method and conditions named. Binding seen in cells or lysates may run through a third protein. Some entries that bind do so weakly or less than the wild type. Tags and fused reporters may be left off the sequences shown.
T1: Prominin 1 (Prom1), human S1 isoform, C-terminally Strep-tagged (Prom1-Strep), wild type (human) (UniProt O43490)
T1 sequence: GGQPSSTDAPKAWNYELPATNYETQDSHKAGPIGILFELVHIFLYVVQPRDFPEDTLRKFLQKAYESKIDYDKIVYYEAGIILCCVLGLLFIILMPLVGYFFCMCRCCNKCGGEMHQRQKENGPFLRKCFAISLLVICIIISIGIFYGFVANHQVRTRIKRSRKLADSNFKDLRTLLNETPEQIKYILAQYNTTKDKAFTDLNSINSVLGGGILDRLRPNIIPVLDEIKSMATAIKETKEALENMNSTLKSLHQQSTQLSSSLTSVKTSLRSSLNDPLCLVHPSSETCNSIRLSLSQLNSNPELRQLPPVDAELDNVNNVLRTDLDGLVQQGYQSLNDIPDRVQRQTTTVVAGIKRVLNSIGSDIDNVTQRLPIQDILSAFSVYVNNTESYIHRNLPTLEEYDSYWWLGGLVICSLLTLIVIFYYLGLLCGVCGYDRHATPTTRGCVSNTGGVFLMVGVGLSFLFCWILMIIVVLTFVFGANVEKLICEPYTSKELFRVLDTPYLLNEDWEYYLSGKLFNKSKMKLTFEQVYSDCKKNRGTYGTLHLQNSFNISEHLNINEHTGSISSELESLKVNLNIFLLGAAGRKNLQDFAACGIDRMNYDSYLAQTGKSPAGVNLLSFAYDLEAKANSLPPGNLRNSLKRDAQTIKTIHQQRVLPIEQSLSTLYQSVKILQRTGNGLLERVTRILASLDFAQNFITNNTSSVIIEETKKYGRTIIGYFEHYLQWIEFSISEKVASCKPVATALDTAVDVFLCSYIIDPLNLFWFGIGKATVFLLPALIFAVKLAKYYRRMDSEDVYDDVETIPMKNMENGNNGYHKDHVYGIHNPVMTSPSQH


Target: T1, Prominin 1 (Prom1), human S1 isoform, C-terminally Strep-tagged (Prom1-Strep), wild type (human)
Experiment: co-IP; EVs from co-transfected Expi293 cells, purified and solubilised with 1% DDM (25 mM HEPES-NaOH pH 7.8, 150 mM NaCl, 5 mM CaCl2); Prom1-Strep captured on StrepTactinXT 4Flow resin, 1 hr at 4°C; co-purified mNeonGreen or mScarlet fluorescence on the beads measured by montaged epifluorescence imaging, normalised to mTagBFP2-Strep on the resin

Row | binding | Binder
1 | binds | Prominin 1 (Prom1), human S1 isoform, C-terminally Strep-tagged (Prom1-Strep), wild type (protein, UniProt O43490-2 20-856) GGQPSSTDAPKAWNYELPATNYETQDSHKAGPIGILFELVHIFLYVVQPRDFPEDTLRKFLQKAYESKIDYDKIVYYEAGIILCCVLGLLFIILMPLVGYFFCMCRCCNKCGGEMHQRQKENGPFLRKCFAISLLVICIIISIGIFYGFVANHQVRTRIKRSRKLADSNFKDLRTLLNETPEQIKYILAQYNTTKDKAFTDLNSINSVLGGGILDRLRPNIIPVLDEIKSMATAIKETKEALENMNSTLKSLHQQSTQLSSSLTSVKTSLRSSLNDPLCLVHPSSETCNSIRLSLSQLNSNPELRQLPPVDAELDNVNNVLRTDLDGLVQQGYQSLNDIPDRVQRQTTTVVAGIKRVLNSIGSDIDNVTQRLPIQDILSAFSVYVNNTESYIHRNLPTLEEYDSYWWLGGLVICSLLTLIVIFYYLGLLCGVCGYDRHATPTTRGCVSNTGGVFLMVGVGLSFLFCWILMIIVVLTFVFGANVEKLICEPYTSKELFRVLDTPYLLNEDWEYYLSGKLFNKSKMKLTFEQVYSDCKKNRGTYGTLHLQNSFNISEHLNINEHTGSISSELESLKVNLNIFLLGAAGRKNLQDFAACGIDRMNYDSYLAQTGKSPAGVNLLSFAYDLEAKANSLPPGNLRNSLKRDAQTIKTIHQQRVLPIEQSLSTLYQSVKILQRTGNGLLERVTRILASLDFAQNFITNNTSSVIIEETKKYGRTIIGYFEHYLQWIEFSISEKVASCKPVATALDTAVDVFLCSYIIDPLNLFWFGIGKATVFLLPALIFAVKLAKYYRRMDSEDVYDDVETIPMKNMENGNNGYHKDHVYGIHNPVMTSPSQH
2 | binds | Protocadherin-21 (Pcdh21), human isoform 1, mNeonGreen-tagged (protein, UniProt Q96JP9-1 20-859) QANFAPHFFDNGVGSTNGNMALFSLPEDTPVGSHVYTLNGTDPEGDPISYHISFDPSTRSVFSVDPTFGNITLVEELDREREDEIEAIISISDGLNLVAEKVVILVTDANDEAPRFIQEPYVALVPEDIPAGSIIFKVHAVDRDTGSGGSVTYFLQNLHSPFAVDRHSGVLRLQAGATLDYERSRTHYITVVAKDGGGRLHGADVVFSATTTVTVNVEDVQDMAPVFVGTPYYGYVYEDTLPGSEVLKVVAMDGDRGKPNRILYSLVNGNDGAFEINETSGAISITQSPAQLQREVYELHVQVTEMSPAGSPAAQATVPVTIRIVDLNNHPPTFYGESGPQNRFELSMNEHPPQGEILRGLKITVNDSDQGANAKFNLQLVGPRGIFRVVPQTVLNEAQVTIIVENSAAIDFEKSKVLTFKLLAVEVNTPEKFSSTADVVIQLLDTNDNVPKFDSLYYVARIPENAPGGSSVVAVTAVDPDTGPWGEVKYSTYGTGADLFLIHPSTGLIYTQPWASLDAEATARYNFYVKAEDMEGKYSVAEVFITLLDVNDHPPQFGKSVQKKTMVLGTPVKIEAIDEDAEEPNNLVDYSITHAEPANVFDINSHTGEIWLKNSIRSLDALHNITPGRDCLWSLEVQAKDRGSPSFSTTALLKIDITDAETLSRSPMAAFLIQTKDNPMKAVGVLAGTMATVVAITVLISTATFWRNKKSNKVLPMRRVLRKRPSPAPRTIRIEWLKSKSTKAATKFMLKEKPPNENCNNNSPESSLLPRAPALPPPPSVAPSTGAAQWTVPTVSGSLTPQPTQPPPKPKTMGSPVQSTLISELKQKFEKKSVHNKAYF

Reference: PMC11405016
